The whole screen tested about 290,000 compounds, of which about 570 (0.2%) were called active. Inconclusive means that the source gave no clear call. Such entries were picked first, then a sample of the others. Rule as the data show it: active = inhibition mostly above about 51% (no sharp cut-off); inconclusive = no clear call, values can overlap the other calls; inactive = mostly below about 53%.
Target: Voltage-dependent N-type calcium channel subunit alpha-1B (Homo sapiens) (UniProt Q00975)
Test: disruptors of CaV2.2 binding to Mint1 – biochemical, HTRF (AID 2073)
Conditions: HTRF protein-protein interaction, Mint1-CaV2.2; at 20 µM; hits give high values

Chains of the proteins cited; added tags and fusions are not shown.
UniProt Q00975, whole entry, looked up: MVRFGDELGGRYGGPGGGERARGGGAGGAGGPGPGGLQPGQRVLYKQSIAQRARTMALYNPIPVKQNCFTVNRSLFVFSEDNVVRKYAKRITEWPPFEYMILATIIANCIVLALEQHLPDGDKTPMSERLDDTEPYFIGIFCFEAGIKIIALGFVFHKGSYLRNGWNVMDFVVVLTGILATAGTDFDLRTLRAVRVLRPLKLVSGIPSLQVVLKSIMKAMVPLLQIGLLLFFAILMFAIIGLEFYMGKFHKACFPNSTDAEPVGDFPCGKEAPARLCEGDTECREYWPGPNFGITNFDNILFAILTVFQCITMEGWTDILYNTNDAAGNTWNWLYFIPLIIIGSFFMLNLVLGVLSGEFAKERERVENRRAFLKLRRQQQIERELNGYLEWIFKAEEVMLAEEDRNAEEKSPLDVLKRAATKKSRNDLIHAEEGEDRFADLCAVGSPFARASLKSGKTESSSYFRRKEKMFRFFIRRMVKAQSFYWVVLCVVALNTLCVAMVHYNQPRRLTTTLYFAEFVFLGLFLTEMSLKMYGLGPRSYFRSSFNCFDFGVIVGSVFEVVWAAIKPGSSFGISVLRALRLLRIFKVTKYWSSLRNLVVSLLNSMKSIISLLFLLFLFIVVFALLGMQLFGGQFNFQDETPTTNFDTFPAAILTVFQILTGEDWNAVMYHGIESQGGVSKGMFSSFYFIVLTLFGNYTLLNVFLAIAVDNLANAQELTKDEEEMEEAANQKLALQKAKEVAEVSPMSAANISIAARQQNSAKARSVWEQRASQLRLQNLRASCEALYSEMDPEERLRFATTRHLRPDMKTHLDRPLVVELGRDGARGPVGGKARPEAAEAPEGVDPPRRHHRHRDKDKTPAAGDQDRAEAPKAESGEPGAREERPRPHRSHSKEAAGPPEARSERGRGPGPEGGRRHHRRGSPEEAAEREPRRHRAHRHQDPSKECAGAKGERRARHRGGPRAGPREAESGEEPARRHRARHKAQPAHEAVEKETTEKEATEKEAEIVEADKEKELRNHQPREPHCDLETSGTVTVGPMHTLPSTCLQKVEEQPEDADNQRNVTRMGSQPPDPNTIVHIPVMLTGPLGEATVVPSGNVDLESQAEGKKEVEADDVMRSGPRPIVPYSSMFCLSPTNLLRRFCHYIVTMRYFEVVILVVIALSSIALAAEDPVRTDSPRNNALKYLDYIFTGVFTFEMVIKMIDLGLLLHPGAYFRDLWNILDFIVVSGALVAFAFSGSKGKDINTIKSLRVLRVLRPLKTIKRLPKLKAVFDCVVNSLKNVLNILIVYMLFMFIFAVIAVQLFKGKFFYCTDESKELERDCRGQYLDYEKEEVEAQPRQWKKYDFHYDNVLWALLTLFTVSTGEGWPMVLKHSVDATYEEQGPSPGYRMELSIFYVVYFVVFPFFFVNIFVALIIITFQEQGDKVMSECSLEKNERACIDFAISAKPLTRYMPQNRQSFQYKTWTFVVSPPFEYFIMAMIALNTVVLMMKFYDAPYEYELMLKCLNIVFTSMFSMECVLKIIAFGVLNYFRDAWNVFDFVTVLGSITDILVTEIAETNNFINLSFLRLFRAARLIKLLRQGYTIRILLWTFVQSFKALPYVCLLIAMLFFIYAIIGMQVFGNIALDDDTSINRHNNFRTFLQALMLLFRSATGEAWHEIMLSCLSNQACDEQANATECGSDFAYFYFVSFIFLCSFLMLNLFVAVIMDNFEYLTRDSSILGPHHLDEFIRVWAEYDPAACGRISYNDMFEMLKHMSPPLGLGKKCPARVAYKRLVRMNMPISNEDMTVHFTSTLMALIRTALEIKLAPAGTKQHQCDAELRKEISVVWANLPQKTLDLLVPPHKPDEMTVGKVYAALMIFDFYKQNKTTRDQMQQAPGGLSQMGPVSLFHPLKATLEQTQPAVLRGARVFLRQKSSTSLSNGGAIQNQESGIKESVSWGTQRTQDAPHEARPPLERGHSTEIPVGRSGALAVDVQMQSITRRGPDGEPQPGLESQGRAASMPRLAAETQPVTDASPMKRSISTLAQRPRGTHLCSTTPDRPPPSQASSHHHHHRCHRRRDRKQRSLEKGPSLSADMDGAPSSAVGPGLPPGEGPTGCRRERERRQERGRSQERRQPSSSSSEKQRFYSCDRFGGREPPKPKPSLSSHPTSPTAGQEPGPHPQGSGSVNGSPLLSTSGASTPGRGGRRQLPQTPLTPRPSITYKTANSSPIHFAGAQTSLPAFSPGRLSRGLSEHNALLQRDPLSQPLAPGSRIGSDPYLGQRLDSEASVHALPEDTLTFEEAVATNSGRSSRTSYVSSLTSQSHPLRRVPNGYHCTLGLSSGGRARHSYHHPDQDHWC

| SMILES | inhibition |
| --- | --- |
| CC(C)(C)c1ccc(-c2nc3n(c(=O)c2C#N)CCS3)cc1 | inconclusive: 66.2% |
| C1CNCCOCCNCCN1 | inconclusive: 72.5% |
| Cc1cc(NC(=O)c2cnn3cccnc23)nn1CC(=O)Nc1cccnc1 | inconclusive: 78.1% |
| CCCCn1c(-c2ccc([N+](=O)[O-])cc2)n[nH]c1=S | inconclusive: 52.2% |
| CCc1ccc(-c2cc(C)no2)cc1S(=O)(=O)Nc1ccc(C)cn1 | inconclusive: 51.2% |
| CCn1c(SCC(=O)NC2CCCCC2)nnc1-c1ccco1 | inconclusive: 61.5% |
| O=S(=O)(NCc1csc(-c2cccnc2)n1)c1ccc(Br)cc1 | inconclusive: 66.2% |
| COc1ccc(C(CC(=O)NCc2ccccc2)C(C)C)cc1 (stereo not given) | inconclusive: 64.4% |
| O=C(Nc1ccccc1C(=O)Nc1ccccc1C(=O)O)c1ccccc1 | inconclusive: 70.8% |
| COc1ccc(-c2cc(C(=O)Nc3cccc(S(=O)(=O)NCc4ccco4)c3)c3ccccc3n2)cc1OC | inconclusive: 61.9% |
| Cc1ccsc1/C=N/Nc1ncc(Cl)cc1Cl | inconclusive: 52.1% |
| Nc1ccc2nc3c(=O)[nH]c(=S)[nH]c3nc2c1 | inconclusive: 85% |
| O=c1cc(O)c2sc(Nc3ccc(F)c(Cl)c3)nc2[nH]1 | active: 86.3% |
| Cc1cc(C)cc(NC(=O)CCC(=O)N2CCSc3ccccc32)c1 | inactive: -4.1% |
| CN(C)c1ccc(C(=O)N(Cc2ccccc2)Cc2ccccc2)cc1 | inconclusive: 51.3% |
| O=C(NC1CCCC1)C1CCN(C(=O)Nc2cccc(Cl)c2)CC1 | inconclusive: 50.7% |
| O=C1C2C3C=CC(C3)C2C(=O)N1c1ccc(-c2nc3ccccc3o2)cc1 (stereo not given) | inactive: 15.5% |
| N#CCOc1nc(N2CCOCC2)nc(N2CCOCC2)n1 | inconclusive: 61.2% |
| O=C(NC(=S)Nc1ccccc1N1CCN(C(=O)c2ccccc2)CC1)c1cccs1 | inconclusive: 65.2% |
| CCOC(=O)c1cn2nc(Oc3cccc(F)c3)ccc2n1 | inactive: 4.6% |
| O=C1CNCc2[nH]c3ccccc3c2N1c1ccccc1 | inconclusive: 77.7% |
| NC(=O)NC(=O)COC(=O)[C@H](Cc1ccccc1)NC(=O)c1cccs1 | inconclusive: 81.4% |
| COc1ccc(-c2cc(C(=O)OCC(=O)c3c(N)n(C)c(=O)n(C)c3=O)c3ccccc3n2)cc1 | inconclusive: 51.9% |

| SMILES | inhibition |
| --- | --- |
| O=C(CCC(=O)c1cccs1)NCc1ccc(F)cc1 | inconclusive: 67.3% |
| COc1ccc(CCN(C)C(=O)CN2C(=O)c3ccccc3S2(=O)=O)cc1OC | inactive: -0.2% |
| Cc1ccc2cccc(N=Cc3c(C)[nH]n(-c4ccccc4)c3=O)c2n1 | inconclusive: 74.8% |
| CCOC(=O)N1CCN(C(=S)Nc2cc(S(=O)(=O)N3CCOCC3)ccc2Cl)CC1 | inconclusive: 61.6% |
| Cc1ccccc1OCC(=O)Nc1ccc(N2CCN(C(=O)C(C)C)CC2)c(Cl)c1 | inconclusive: 57.9% |
| O=c1c(Cl)c(Cl)cnn1Cc1nnc(-c2ccc(Cl)cc2)o1 | inconclusive: 88.7% |
| COc1ccc(OC)c(-c2c3cc(O)c(=O)cc-3oc3cc(O)c(O)cc23)c1 | inconclusive: 81.3% |
| c1ccc2c(c1)NC1(CCCC1)n1c-2nc2ccccc21 | inconclusive: 50.4% |
| O=C(NC1CCCCC1)C(c1ccc(F)cc1)N(C(=O)Cc1ccsc1)c1ccc(F)cc1 (stereo not given) | inconclusive: 84.4% |
| Cc1ccc(NC(=O)Cn2nnc(C(=O)NCc3ccc4c(c3)OCO4)c2N)cc1 | inactive: 9.7% |
| Cc1ccc(NC(=O)Nc2nnc(-c3ccncc3)s2)cc1C | active: 76.4% |
| COC(=O)c1ccc(CSc2nnc(-c3ccccc3)n2C)o1 | inconclusive: 62.7% |
| N#CCCN(Cc1cccnc1)C(=S)Nc1ccccc1Cl | inconclusive: 68.4% |
| Cc1ccc(Cl)cc1N1CCN(Cc2cc(=O)n3ccsc3n2)CC1 | inconclusive: 81.3% |
| CC1(C)CC(=O)C2=C(C1)OC(N)=C(C#N)C2c1ccc2c(c1)OCO2 (stereo not given) | inconclusive: 91.3% |
| CN(C)/C=N/c1ncc(C(=O)c2ccccc2)s1 | inconclusive: 87.7% |
| Cc1ccc2c(Cl)c(C(=O)NCC(c3ccco3)N3CCCC3)sc2c1 (stereo not given) | inactive: 3% |
| COc1ccc(N2C(=O)C(Cl)=C(Oc3cccc(OC)c3)C2=O)cc1 | active: 56.7% |
| OC(COc1ccc(OCc2ccccc2)cc1)CN1CCOCC1 (stereo not given) | inconclusive: 72.7% |
| CCN1CCN(C(=O)CN(c2ccc(F)c(Cl)c2)S(C)(=O)=O)CC1 | inconclusive: 67.3% |
| Cc1c(Cc2ccccc2)c(=O)oc2cc(O)cc(O)c12 | inconclusive: 51.1% |
| CCc1cc(=O)oc2c(C)c(OCC(=O)N3CC[C@@]4(O)CCCC[C@H]4C3)ccc12 | inconclusive: 71.7% |
| CCOC(=O)c1c(N2C(=O)C=CC2=O)sc(C)c1C | active: 65.5% |

| SMILES | inhibition |
| --- | --- |
| Cc1cnn(-c2cc(N/N=C/c3ccccc3F)ncn2)c1 | inconclusive: 84.8% |
| N#CCCn1cc(/C=N/N=C2\NC(=O)C(CC(=O)O)S2)c(-c2ccc(F)cc2)n1 (stereo not given) | inconclusive: 99.9% |
| NS(=O)(=O)c1ccc(N/N=C/c2ccc(O)c(O)c2O)c([N+](=O)[O-])c1 | inconclusive: 62.6% |
| Cc1ccc(-c2noc(C3CCCN(C(=O)c4cccc([N+](=O)[O-])c4)C3)n2)o1 (stereo not given) | inconclusive: 59.5% |
| COc1cc(/C=C2/NC(=O)N(Cc3ccccc3F)C2=O)ccc1Oc1ccc([N+](=O)[O-])cn1 | inconclusive: 59.9% |
| Cc1cc2nc(-c3ccc(SCc4ccc(C(=O)O)cc4)nc3)[nH]c2cc1C | inconclusive: 70.8% |
| O=C(Nc1nc(-c2ccco2)c(-c2ccco2)s1)C1CCC1 | inactive: 58.1% |
| C/C(=N\NC(=O)CCC(=O)Nc1ccc(C)c(C)c1)c1cccs1 | inconclusive: 57.5% |
| CCN(CC(=O)NCc1ccc(F)cc1)Cc1cc(=O)n2ccsc2n1 | inconclusive: 54.5% |
| COc1ccc(-c2cc(-c3ccccc3)nc(=O)[nH]2)cc1 | inactive: 0.5% |
| Cc1ccc(N2CC(C(=O)N3CCCCC3)CC2=O)cc1C (stereo not given) | inconclusive: 82.2% |
| COc1ccc(NC(=O)Cn2nnc(-c3ccc(CN4CCOCC4)cc3)n2)c(OC)c1 | inconclusive: 76.3% |
| Cc1ccccc1NC(=O)CCC(=O)OCCCC(F)(F)C(F)(F)F | inconclusive: 53% |
| CC(OC(=O)CN(C)S(=O)(=O)c1ccc(Cl)cc1)C(=O)Nc1cccc(Cl)c1 (stereo not given) | inconclusive: 65.5% |
| O=C(NC1CCCc2ccccc21)C1CCC(CNS(=O)(=O)c2cccc3nsnc23)CC1 (stereo not given) | inconclusive: 68.4% |
| O=[N+]([O-])c1cccc(CSc2nnc3ccccn23)c1 | inactive: 13.5% |
| CC(=O)c1cccc(NC(=O)COC(=O)C2=COCCO2)c1 | inconclusive: 55.1% |
| CSc1ncc(C(=O)Nc2ccc(C(C)=O)cc2)c(C)n1 | inconclusive: 58.7% |
| CNC(=S)N/N=C/c1ccc(-c2cccc(C(=O)O)c2)o1 | inconclusive: 62.3% |
| Cc1ccc(N2C(=O)C3C4CC(=O)C(c5ccccc54)C3C2=O)cc1C (stereo not given) | inactive: -1.5% |
| Cc1cc(C)n2c3c(c(C#N)c2n1)CC(C)(C)OC3 | inconclusive: 83.3% |
| O=C(CSc1ccccc1C(=O)O)NC1CCCCCCC1 | inconclusive: 50.7% |
| COc1cc(OC)c(C2CC(=O)N3CN(c4ccccc4C)CSC3=C2C#N)cc1OC (stereo not given) | active: 73.1% |

5 entries already listed, ordered by SMILES length, largest number first.

| SMILES | inhibition |
| --- | --- |
| COc1ccc(-c2cc(C(=O)Nc3cccc(S(=O)(=O)NCc4ccco4)c3)c3ccccc3n2)cc1OC | inconclusive: 61.9% |
| N#CCCn1cc(/C=N/N=C2\NC(=O)C(CC(=O)O)S2)c(-c2ccc(F)cc2)n1 (stereo not given) | inconclusive: 99.9% |
| CC(OC(=O)CN(C)S(=O)(=O)c1ccc(Cl)cc1)C(=O)Nc1cccc(Cl)c1 (stereo not given) | inconclusive: 65.5% |
| Cc1ccc2c(Cl)c(C(=O)NCC(c3ccco3)N3CCCC3)sc2c1 (stereo not given) | inactive: 3% |
| O=c1cc(O)c2sc(Nc3ccc(F)c(Cl)c3)nc2[nH]1 | active: 86.3% |

Following part

| SMILES | inhibition |
| --- | --- |
| CCOC(=O)N1CCN(C(=O)CSc2nc3c(cnn3-c3ccc(C)cc3)c(=O)[nH]2)CC1 | inactive: 7.8% |
| Cc1cc(C)cc(NC(=S)N2CCC(c3nc4ccccc4s3)CC2)c1 | inconclusive: 57.4% |
| Cc1nn(-c2ccccc2)c2nc(N)c(C#N)c(-c3ccc(C(C)(C)C)cc3)c12 | inconclusive: 58.1% |
| CCc1ccc(-c2cc(C(=O)NN3CCOCC3)c3ccccc3n2)s1 | inconclusive: 64.3% |
| COc1ccc(N2CCN(C(=O)C3CCCN(S(=O)(=O)c4ccc(C)cc4)C3)CC2)cc1 (stereo not given) | inconclusive: 66.6% |
| Cc1cc2c(OCC(O)CNCc3ccco3)cccc2[nH]1 (stereo not given) | inconclusive: 59.6% |
| COc1ccccc1CC(=O)Nc1cc(OC)c(NC(=O)c2ccccc2)cc1OC | inactive: -5.3% |
| CNC(=O)COC(=O)c1cc(-c2ccco2)nc2ccccc12 | active: 66.4% |
| COc1ccc(C(=O)O/N=C(\N)c2ccccn2)c(OC)c1 | inconclusive: 87.1% |
| Cc1cccc(C(=O)NCC(=O)NC(C)CCc2ccccc2)c1 (stereo not given) | inconclusive: 53.2% |
| O=C(O)C(O)c1ccco1 (stereo not given) | active: 65.3% |
| N#C/C(=C(O)\C=C\c1ccccc1)c1nc2ccccc2[nH]1 | inconclusive: 80.8% |
| NCCOc1ccccc1OCCN | inconclusive: 52% |
| COc1ccc(NC(=O)c2cc(=O)c3ccccc3o2)cc1Cl | inconclusive: 67.1% |
| CC(C)(C)S(=O)(=O)/C(C#N)=C/Nc1ccccn1 | inconclusive: 55.2% |
| CCC(=O)NC(=S)Nc1cccc(NC(=O)CC)c1 | inconclusive: 97.4% |
| CC(=O)OC1COC(N2CCc3ccccc32)C(OC(C)=O)C1OC(C)=O (stereo not given) | inconclusive: 66% |
| Oc1c(Br)cc(/C=N/n2c(-c3ccccc3)n[nH]c2=S)c(O)c1Br | inactive: -12.3% |
| CS(=O)(=O)N1CCN(c2ccccc2NC(=O)Cc2ccc(Cl)cc2)CC1 | inconclusive: 51.7% |
| CCOc1cc(NC(=O)c2cccs2)c(OCC)cc1NC(=O)c1cccnc1 | inconclusive: 72.8% |
| O=C(Nc1ccc(Oc2cccnc2)nc1)c1ccc(C(F)(F)F)cc1 | inconclusive: 82.1% |
